Reference: the supplement of paper PMC7824004
The list shows a part of the results. The data scatter; read single values as rough.

These molecules were tested on Candida albicans SN425 (assay: biofilm OD600 B-score; higher = more biofilm (less inhibition)). Conditions: 10 µM; assay detail: High-throughput adherence inhibition optical density biofilm assay with C. albicans SN425 in RPMI-1640/MOPS pH 7.0, 384-well plates. ….
Experimental: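 High-throughput adherence inhibition optical density biofilm assay with C. albicans SN425 in RPMI-1640/MOPS pH 7.0, 384-well plates. Compound (10 µM) was present only during the 90 min adherence step, then washed out, and the biofilm grew 24 h without compound. Biofilm was read as OD600 after removing the media. Scores are the difference from the mean in standard deviations and the plate B-score.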
`CCN1CCN(C(=O)CCCc2ccccc2)CC1` was tested, and the “biofilm OD600 B-score” value was 0.182.
In the case of `CC(C)=CCCC(C)CN1CCC(O)CC1` (stereo not given), the “biofilm OD600 B-score” value is reported as -1.69.
`COC(C(=O)Nc1ccccc1C(=O)NC(C)C)c1ccccc1` (stereo not given) was tested, and the “biofilm OD600 B-score” value was 0.884.
In the case of `O=C(CCN1CCCC1)NCC1COc2ccccc2O1` (stereo not given), the “biofilm OD600 B-score” value is reported as 2.4.
With `CCCn1[nH]cc(SC)c(=O)c1=O` the “biofilm OD600 B-score” value was 0.052.
With `O=C(CCN1CCCCC1)c1ccc(Cl)cc1` the “biofilm OD600 B-score” value was -0.21.
In the case of `C=CCSc1nc(O)c(Cc2ccccc2)c(=O)[nH]1`, the “biofilm OD600 B-score” value is reported as 0.729.
For `Nc1ccc2c(c1)C(=O)N(CC1CCCO1)C2=O` (stereo not given), the “biofilm OD600 B-score” value was -0.913.
For `CC(=O)c1c(C)[nH]n(-c2ccccc2)c1=O`, the “biofilm OD600 B-score” value was 2.4.
In the case of `COc1ccccc1Cc1nc(-c2cccnc2)no1`, the “biofilm OD600 B-score” value is reported as -0.587.
For `Cc1nc(N)nc2[nH]c(=O)n(-c3ccccc3)c(=O)c12`, the “biofilm OD600 B-score” value was 0.988.
In the case of `Cc1cc(NC(=O)Nc2ccc(Cl)c(Cl)c2)no1`, the “biofilm OD600 B-score” value is reported as 2.35.
In the case of `CCc1cccc(NC(=O)NC2CCCCC2)c1`, the “biofilm OD600 B-score” value is reported as 1.52.
In the case of `O=[N+]([O-])c1ccc(N2CCOCC2)c(F)c1`, the “biofilm OD600 B-score” value is reported as 0.0107.
With `O=C1CC(c2ccccc2)CN1C(=O)c1ccccc1` (stereo not given) the “biofilm OD600 B-score” value was -0.998.
In the case of `Cc1ccc(S(=O)(=O)N2CCc3ccccc32)cc1C(N)=O`, the “biofilm OD600 B-score” value is reported as 4.74.
With `CC(O)CNC(=O)C(=O)Nc1ccccc1Cl` (stereo not given) the “biofilm OD600 B-score” value was -0.669.
`O=C(Nc1ccccc1)c1cc(S(=O)(=O)Nc2cccnc2)cs1` was tested, and the “biofilm OD600 B-score” value was 0.0583.
`COc1ccc(CCNC(=O)c2ccoc2C)cc1OC` was tested, and the “biofilm OD600 B-score” value was 3.48.
`Cc1ccccc1C(=O)N1CCCCC1CO` (stereo not given) was tested, and the “biofilm OD600 B-score” value was -4.77.
`COCCNC(=O)c1ccc2c(c1)OCO2` was tested, and the “biofilm OD600 B-score” value was 0.0726.
`CC(C)c1ccc(CN2CCOCC2)cc1` was tested, and the “biofilm OD600 B-score” value was 1.69.
With `COc1ccc(NC(=O)Nc2ccc(F)c(Cl)c2)cc1` the “biofilm OD600 B-score” value was 2.31.
In the case of `O=C1c2ccccc2-c2c1cccc2C(=O)N(CCO)CCO`, the “biofilm OD600 B-score” value is reported as -0.905.
With `O=C(NCCCO)NC1CCCCC1` the “biofilm OD600 B-score” value was 0.58.
`CCN(CC)C(=O)C1CCCN(Cc2ccc3c(c2)OCO3)C1` (stereo not given) was tested, and the “biofilm OD600 B-score” value was -0.0177.
In the case of `CC(C)(C)NS(=O)(=O)Nc1ccccc1`, the “biofilm OD600 B-score” value is reported as 2.77.
For `Cc1c(C(=O)N2CCC(C(N)=O)CC2)sc(N)c1C#N`, the “biofilm OD600 B-score” value was -2.05.
For `COc1cccc(OC)c1C(=O)NCC#N`, the “biofilm OD600 B-score” value was 1.67.
For `Cc1cc(=O)[nH]c(SCCOc2ccccc2C)n1`, the “biofilm OD600 B-score” value was 0.916.
With `C=CCc1ccc(OCC(O)CN2CCN(CC)CC2)c(OC)c1` (stereo not given) the “biofilm OD600 B-score” value was 0.418.
For `CN(CCC#N)C12CC3CC(CC(C3)C1)C2`, the “biofilm OD600 B-score” value was -0.799.
In the case of `COCc1cc(=O)n2[nH]c(-c3cccc(Br)c3)cc2n1`, the “biofilm OD600 B-score” value is reported as -1.86.
With `CS(=O)(=O)NCCC1=CCCCC1` the “biofilm OD600 B-score” value was -1.48.
In the case of `O=C(c1ccc(Cl)cc1)N1CCN(C(=O)c2ccco2)CC1`, the “biofilm OD600 B-score” value is reported as -2.73.
For `CC(=O)c1sc(Nc2ccc(Oc3ccccc3)cc2)nc1C`, the “biofilm OD600 B-score” value was 3.97.
With `NC(=O)COc1ccc(NS(=O)(=O)Cc2ccccc2)cc1` the “biofilm OD600 B-score” value was -8.93.
With `O=C(COc1ccccc1Cl)N1CCCC1` the “biofilm OD600 B-score” value was -0.846.
For `COc1cc(NC(=O)[C@@H]2C3C=CC(C3)[C@@H]2C(=O)O)c(OC)cc1Cl` (stereo not given in full), the “biofilm OD600 B-score” value was -1.42.
With `CN1CCCN(CC2CC3C=CC2C3)CC1` (stereo not given) the “biofilm OD600 B-score” value was -0.804.
